Experimental data: PubChem BioAssay AID540276 (National Center for Advancing Translational Sciences (NCATS), 2011)
In all, about 300,000 compounds went through this assay and about 5,400 (1.8%) were called active. Inconclusive means that the source gave no clear call. Such entries were picked first, then a sample of the others. The call rests on the fitted dose curve; tested in HEK293 cells. Where the call is inconclusive, the potency comes from a doubtful curve fit.

Test: qHTS for inhibitors of binding or entry into cells for Marburg Virus
Details: Marburg virus pseudotyped entry inhibition, cell reporter; series mostly up to 37.8 µM
Potency means the concentration at half of the fitted maximal effect.

| SMILES | Potency |
| --- | --- |
| COC(=O)c1ccccc1NC(=O)N1CCN(c2ccccc2F)CC1 | inconclusive: 5.62 µM [inhibitor, single point] |
| COc1cccc(C=O)c1OC(=O)N1CCOCC1 | inactive |
| O=C(Nc1ccc2c(c1)CCC2)c1cc(S(=O)(=O)N2CCN(c3ccccc3)CC2)ccc1Cl | inconclusive: 6.51 µM [inhibitor, full curve, poor fit] |
| CC(=O)Nc1ccc2nc(SCC(=O)Nc3ccc(N4CCOCC4)c(Cl)c3)sc2c1 | inactive |
| CCOC(=O)c1cnn(-c2ccc(F)cc2)c1N | inactive |
| COC(=O)N1[C@H](C)C=C[C@]1(Cc1ccccc1)C(=O)O | inactive |
| O=c1c2ccccc2cnn1-c1ccc2ccccc2c1 | inconclusive: 8.2 µM [inhibitor, partial curve, poor fit] |
| CC1(C)OC(=O)C(=NNc2ccc(Cl)cc2)C(=O)O1 | inconclusive: 29.1 µM [activator, single point] |
| NC(=O)c1c(N)sc2c1CCCCC2 | inconclusive: 2.82 µM [inhibitor, partial curve, poor fit] |
| CCN(Cc1ccccc1OC)CC1CCCN(CCc2cccc(OC)c2)C1 (centres undefined) | inconclusive: 22.4 µM [inhibitor, partial curve, poor fit] |
| O=C(c1ccco1)N1N=C(c2ccc(Cl)cc2)CC1(O)C(F)(F)F (centres undefined) | inconclusive: 6.31 µM [inhibitor, partial curve, poor fit] |
| CCN(CC)c1ncnc2c1cnn2Cc1ccc(C)cc1 | inconclusive: 1 µM [activator, single point] |
| O=C(NCc1ccccc1)c1ccc2c(c1)N(Cc1ccc(F)cc1)CCS2 | inconclusive: 35.5 µM [inhibitor, single point] |
| COc1ccc(CCNC(=O)CSCc2nc(-c3cccc(C)c3)oc2C)cc1OC | inactive |
| CN(C)CCNC(=O)c1ccc(COc2ccc(Cl)cc2Cl)cc1 | active: 8.2 µM |
| COc1ccc(C(CC(=O)Nc2nccs2)n2cccc2)cc1 (centres undefined) | inconclusive: 0.112 µM [activator, full curve, poor fit] |
| O=C(Nc1ccc(F)c(Cl)c1)Nc1csc2ccccc12 | inconclusive: 15.8 µM [inhibitor, partial curve, poor fit] |
| CC(=NCc1ccc2c(c1)OCO2)c1c(O)n(-c2ccccc2)c(=O)[nH]c1=O | inactive |
| N#CC1=C(N)Oc2c(ccc3ccccc23)C1c1cccs1 (centres undefined) | inconclusive: 0.891 µM [inhibitor, single point] |
| CCOc1ccc2nc(SCC(=O)c3cccs3)sc2c1 | inconclusive: 35.5 µM [inhibitor, single point] |
| CC(C)(C)Nc1nc(NC(C)(C)C)nc(-n2ccnc2)n1 | inconclusive: 20 µM [inhibitor, partial curve, poor fit] |
| CCN(C(=O)Cn1c(=O)n2nc(CCn3nc(C)cc3C)nc2c2ccccc21)c1cccc(C)c1 | inactive |

| SMILES | Potency |
| --- | --- |
| CS(=O)(=O)N(CC(=O)NCCSCc1cccc(Cl)c1)c1ccc(F)cc1 | inconclusive: 12.6 µM [inhibitor, single point] |
| O=C(NCC(=O)N1CCN(C(=O)c2ccccc2)CC1)c1ccccc1 | inconclusive: 0.631 µM [inhibitor, partial curve, poor fit] |
| O=C(NCc1cccnc1)c1c(O)c2cccc3c2n(c1=O)CCC3 | inconclusive: 35.5 µM [inhibitor, single point] |
| Cc1cc(N2CCCCC2)ccc1[N+](=O)[O-] | inactive |
| O=C(N/N=C/c1cccnc1)c1cccc(Cl)c1 | inactive |
| Cc1ccc(Cl)cc1NC(=O)C(NS(=O)(=O)c1cccs1)c1ccccc1 (centres undefined) | inconclusive: 3.16 µM [inhibitor, full curve, poor fit] |
| CC1(C)CC(NS(=O)(=O)c2ccc(C(C)(C)C)cc2)CC(C)(C)N1 | inconclusive: 8.91 µM [inhibitor, partial curve, poor fit] |
| CCOC(=O)C1C(=O)C=C(c2cccs2)CC1c1ccccc1C (centres undefined) | inconclusive: 6.31 µM [activator, single point] |
| COc1ccc(N2CCN(C(=O)CSc3ccc([N+](=O)[O-])cc3)CC2)cc1 | inactive |
| O=C(CN1C(=O)NC2(CCc3ccccc32)C1=O)Nc1cccc(F)c1 (centres undefined) | inactive |
| O=C1OC2(CCCCC2)OC(=O)C1=CNc1nc2ccccc2s1 | inconclusive: 0.058 µM [inhibitor, full curve, poor fit] |
| CC(CN1CCCCCC1)C(=O)NN (centres undefined) | inactive |
| Cc1ccc(-c2nnc(CSc3nc4cc5c(cc4cc3C)OCO5)o2)cc1 | inconclusive: 25.9 µM [inhibitor, partial curve, poor fit] |
| CN(CC(=O)NCCc1ccc(S(N)(=O)=O)cc1)CC(=O)Nc1ccccc1Cl | inconclusive: 1.26 µM [inhibitor, single point] |
| O=C(Nc1nc2ccc(S(=O)(=O)N3CCCC3)cc2s1)c1cccs1 | inconclusive: 35.5 µM [activator, single point] |
| CCSc1ccc(-c2ccc(C)cc2)nn1 | inconclusive: 11.2 µM [inhibitor, partial curve, poor fit] |
| CCCCOc1ccc(OCCCN2CCOCC2)cc1 | inactive |
| CCOC(=O)c1cnc(SC)nc1Sc1cc(Cl)ccc1Cl | inconclusive: 17.8 µM [inhibitor, single point] |
| Cc1cc2oc(C(=O)Nc3ccc(S(N)(=O)=O)cc3)c(C)c2cc1Cl | inconclusive: 0.562 µM [inhibitor, full curve, poor fit] |
| O=C(Cc1cccs1)N(CC1CCCO1)C1(C(=O)NC2CCCC2)CCCCC1 (centres undefined) | inconclusive: 7.08 µM [inhibitor, partial curve, poor fit] |
| CCOc1ccccc1N(CC(=O)NC1CCCC1)S(=O)(=O)c1ccc(C)cc1 | inconclusive: 12.6 µM [inhibitor, partial curve, poor fit] |
| O=C(CN1CCN(CC(=O)Nc2ccccc2Cc2ccccc2)CC1)Nc1ccccc1Cl | inconclusive: 2.82 µM [inhibitor, single point] |

Structures listed so far that contain four or more nitrogen atoms (6):

| SMILES | Potency |
| --- | --- |
| CC(=O)Nc1ccc2nc(SCC(=O)Nc3ccc(N4CCOCC4)c(Cl)c3)sc2c1 | inactive |
| CCN(CC)c1ncnc2c1cnn2Cc1ccc(C)cc1 | inconclusive: 1 µM [activator, single point] |
| CC(C)(C)Nc1nc(NC(C)(C)C)nc(-n2ccnc2)n1 | inconclusive: 20 µM [inhibitor, partial curve, poor fit] |
| CCN(C(=O)Cn1c(=O)n2nc(CCn3nc(C)cc3C)nc2c2ccccc21)c1cccc(C)c1 | inactive |
| CN(CC(=O)NCCc1ccc(S(N)(=O)=O)cc1)CC(=O)Nc1ccccc1Cl | inconclusive: 1.26 µM [inhibitor, single point] |
| O=C(CN1CCN(CC(=O)Nc2ccccc2Cc2ccccc2)CC1)Nc1ccccc1Cl | inconclusive: 2.82 µM [inhibitor, single point] |
